Laboratory results from the supplement of paper PMC5355238.
Structures can show the parent of a compound that is named as a salt. Some of the results follow. Most values lie at the level of the controls, where differences are scatter.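 Reh is a human leukemia cell line; the read-out is the median γH2AX antibody signal in S-phase cells by flow cytometry, with the score counting standard deviations from the median difference of each paired set of plates. Scores above 2.5 were called candidate hits, while scores below -2 mark compounds that lowered the MK1775-induced damage.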

test system: Reh; assay: Z' of S-phase gammaH2AX difference (drug + MK1775 minus drug alone) (Z-score); higher = stronger synergistic S-phase DNA damage with MK1775; settings: MK1775 concentration 400 nM; first compound 10 µM; 4 h

Row | Structure (SMILES) | Z' of S-phase gammaH2AX difference (Z-score)
1 | CCCN1CCc2cc(O)cc3c2[C@H]1Cc1ccc(O)c(O)c1-3 [R(-)-2,10,11-Trihydroxy-N-propylnoraporphine hydrobromide] + C=CCn1c(=O)c2cnc(Nc3ccc(N4CCN(C)CC4)cc3)nc2n1-c1cccc(C(C)(C)O)n1 [MK1775] | inactive: -0.236
2 | C[C@@]12N[C@@H](Cc3ccccc31)c1ccccc12 [(-)-MK-801 hydrogen maleate] + C=CCn1c(=O)c2cnc(Nc3ccc(N4CCN(C)CC4)cc3)nc2n1-c1cccc(C(C)(C)O)n1 [MK1775] | inactive: 0.398
3 | C#CCN[C@H](C)Cc1ccccc1 [R-(-)-Desmethyldeprenyl hydrochloride] + C=CCn1c(=O)c2cnc(Nc3ccc(N4CCN(C)CC4)cc3)nc2n1-c1cccc(C(C)(C)O)n1 [MK1775] | inactive: -0.0607
4 | CCCN(CCC)[C@@H]1CCc2cccc(O)c2C1 [R-(+)-8-Hydroxy-DPAT hydrobromide] + C=CCn1c(=O)c2cnc(Nc3ccc(N4CCN(C)CC4)cc3)nc2n1-c1cccc(C(C)(C)O)n1 [MK1775] | inactive: -0.0947
5 | Cc1nnc2ccc(-c3cccc(C(F)(F)F)c3)nn12 + C=CCn1c(=O)c2cnc(Nc3ccc(N4CCN(C)CC4)cc3)nc2n1-c1cccc(C(C)(C)O)n1 [MK1775] | inactive: 1.31
6 | CC1(C(=O)O)C2CCC(O2)C1(C)C(=O)O (stereo unspecified) [Cantharidic Acid] + C=CCn1c(=O)c2cnc(Nc3ccc(N4CCN(C)CC4)cc3)nc2n1-c1cccc(C(C)(C)O)n1 [MK1775] | inactive: 0.825
7 | CC(C)(C)NCC(O)c1ccccc1Cl (stereo unspecified) [Tulobuterol hydrochloride] + C=CCn1c(=O)c2cnc(Nc3ccc(N4CCN(C)CC4)cc3)nc2n1-c1cccc(C(C)(C)O)n1 [MK1775] | inactive: -0.505
8 | CC[C@H]1CN2CCc3cc(OC)c(OC)cc3[C@@H]2C[C@@H]1C[C@H]1NCCc2cc(OC)c(OC)cc21 [Emetine dihydrochloride hydrate] + C=CCn1c(=O)c2cnc(Nc3ccc(N4CCN(C)CC4)cc3)nc2n1-c1cccc(C(C)(C)O)n1 [MK1775] | inactive: -2.69
9 | COc1cc([C@@H]2c3cc4c(cc3[C@H](O)[C@H]3COC(=O)[C@H]23)OCO4)cc(OC)c1OC [Podophyllotoxin] + C=CCn1c(=O)c2cnc(Nc3ccc(N4CCN(C)CC4)cc3)nc2n1-c1cccc(C(C)(C)O)n1 [MK1775] | inactive: -0.0388
10 | CS(=N)(=O)CC[C@H](N)C(=O)O (stereo partly drawn) [L-Methionine sulfoximine] + C=CCn1c(=O)c2cnc(Nc3ccc(N4CCN(C)CC4)cc3)nc2n1-c1cccc(C(C)(C)O)n1 [MK1775] | inactive: 0.0679
11 | CCCN(CCC)CCc1ccc(O)c(O)c1 [Dipropyldopamine hydrobromide] + C=CCn1c(=O)c2cnc(Nc3ccc(N4CCN(C)CC4)cc3)nc2n1-c1cccc(C(C)(C)O)n1 [MK1775] | inactive: -0.566
12 | Ic1ccccc1CNC1C2CCN(CC2)C1C(c1ccccc1)c1ccccc1 [L-703,606 oxalate] + C=CCn1c(=O)c2cnc(Nc3ccc(N4CCN(C)CC4)cc3)nc2n1-c1cccc(C(C)(C)O)n1 [MK1775] | inactive: -0.801
13 | NCCc1c[nH]c2ccc(O)cc12 [Serotonin hydrochloride] + C=CCn1c(=O)c2cnc(Nc3ccc(N4CCN(C)CC4)cc3)nc2n1-c1cccc(C(C)(C)O)n1 [MK1775] | inactive: -0.605
14 | Clc1ccc(N2C[C@H]3CC[C@@H](C2)N3)nn1 + C=CCn1c(=O)c2cnc(Nc3ccc(N4CCN(C)CC4)cc3)nc2n1-c1cccc(C(C)(C)O)n1 [MK1775] | inactive: 0.129
15 | NCCc1c[nH]c2ccccc12 [Tryptamine hydrochloride] + C=CCn1c(=O)c2cnc(Nc3ccc(N4CCN(C)CC4)cc3)nc2n1-c1cccc(C(C)(C)O)n1 [MK1775] | inactive: 0.114
16 | CC[C@@H]1/C=C/C=C/C[C@H](C)[C@H](O)[C@](C)(O)C(=O)[C@H](C)[C@@H](O)[C@H](C)C(=O)[C@H](C)[C@@H](O)[C@H](C)/C=C/C(=O)O[C@H]2[C@@H](C)[C@@H](CC1)O[C@@]1(CC[C@@H](C)[C@@H](C[C@H](C)O)O1)[C@@H]2C [Oligomycin A] + C=CCn1c(=O)c2cnc(Nc3ccc(N4CCN(C)CC4)cc3)nc2n1-c1cccc(C(C)(C)O)n1 [MK1775] | inactive: 0.427
17 | CCCN1CCC[C@@H](c2cccc(O)c2)C1 [S(-)-3PPP hydrochloride] + C=CCn1c(=O)c2cnc(Nc3ccc(N4CCN(C)CC4)cc3)nc2n1-c1cccc(C(C)(C)O)n1 [MK1775] | inactive: 0
18 | Cc1ccc(S(=O)(=O)N[C@@H](CCCCN)C(=O)CCl)cc1 [Na-p-Tosyl-L-lysine chloromethyl ketone hydrochloride] + C=CCn1c(=O)c2cnc(Nc3ccc(N4CCN(C)CC4)cc3)nc2n1-c1cccc(C(C)(C)O)n1 [MK1775] | inactive: -0.502

An excerpt of the results above:
Row | Structure (SMILES) | Z' of S-phase gammaH2AX difference (Z-score)
7 | CC(C)(C)NCC(O)c1ccccc1Cl (stereo unspecified) [Tulobuterol hydrochloride] + C=CCn1c(=O)c2cnc(Nc3ccc(N4CCN(C)CC4)cc3)nc2n1-c1cccc(C(C)(C)O)n1 [MK1775] | inactive: -0.505
8 | CC[C@H]1CN2CCc3cc(OC)c(OC)cc3[C@@H]2C[C@@H]1C[C@H]1NCCc2cc(OC)c(OC)cc21 [Emetine dihydrochloride hydrate] + C=CCn1c(=O)c2cnc(Nc3ccc(N4CCN(C)CC4)cc3)nc2n1-c1cccc(C(C)(C)O)n1 [MK1775] | inactive: -2.69

The results go on:

Row | Structure (SMILES) | Z' of S-phase gammaH2AX difference (Z-score)
19 | O=C(Oc1ccc([N+](=O)[O-])cc1)N1CCC(C(O)(c2ccc3c(c2)OCO3)c2ccc3c(c2)OCO3)CC1 + C=CCn1c(=O)c2cnc(Nc3ccc(N4CCN(C)CC4)cc3)nc2n1-c1cccc(C(C)(C)O)n1 [MK1775] | inactive: 0.0643
20 | Cc1cccc(C)c1NC1=NCCCS1 [Xylazine hydrochloride] + C=CCn1c(=O)c2cnc(Nc3ccc(N4CCN(C)CC4)cc3)nc2n1-c1cccc(C(C)(C)O)n1 [MK1775] | inactive: -0.214
21 | CCNC(=O)[C@H]1O[C@@H](n2cnc3c(N)ncnc32)[C@H](O)[C@@H]1O [5'-N-Ethylcarboxamidoadenosine] + C=CCn1c(=O)c2cnc(Nc3ccc(N4CCN(C)CC4)cc3)nc2n1-c1cccc(C(C)(C)O)n1 [MK1775] | inactive: -0.26
22 | Oc1ccc2c3c1O[C@H]1c4oc5ccccc5c4C[C@@]4(O)[C@@H](C2)N(CC2CC2)CC[C@]314 [Naltriben methanesulfonate] + C=CCn1c(=O)c2cnc(Nc3ccc(N4CCN(C)CC4)cc3)nc2n1-c1cccc(C(C)(C)O)n1 [MK1775] | inactive: 0.311
23 | NC(=O)CN1CCCC1=O [Piracetam] + C=CCn1c(=O)c2cnc(Nc3ccc(N4CCN(C)CC4)cc3)nc2n1-c1cccc(C(C)(C)O)n1 [MK1775] | inactive: -0.602
24 | NCc1cc(O)no1 [Muscimol hydrobromide] + C=CCn1c(=O)c2cnc(Nc3ccc(N4CCN(C)CC4)cc3)nc2n1-c1cccc(C(C)(C)O)n1 [MK1775] | inactive: 0.338
25 | CC(=O)NBr [N-Bromoacetamide] + C=CCn1c(=O)c2cnc(Nc3ccc(N4CCN(C)CC4)cc3)nc2n1-c1cccc(C(C)(C)O)n1 [MK1775] | inactive: 0.107
26 | CC(C)NP(=O)(NC(C)C)OP(=O)(NC(C)C)NC(C)C [Tetraisopropyl pyrophosphoramide] + C=CCn1c(=O)c2cnc(Nc3ccc(N4CCN(C)CC4)cc3)nc2n1-c1cccc(C(C)(C)O)n1 [MK1775] | inactive: 0.334
27 | C=CCc1ccccc1OCC(O)CNC1(C)CCC(C(C)(C)NC(=O)CBr)CC1 (stereo unspecified) [Bromoacetyl alprenolol menthane] + C=CCn1c(=O)c2cnc(Nc3ccc(N4CCN(C)CC4)cc3)nc2n1-c1cccc(C(C)(C)O)n1 [MK1775] | inactive: -0.969
28 | Cc1c2ccncc2c(C)c2c1[nH]c1ccccc12 [Ellipticine] + C=CCn1c(=O)c2cnc(Nc3ccc(N4CCN(C)CC4)cc3)nc2n1-c1cccc(C(C)(C)O)n1 [MK1775] | inactive: -1.72
29 | CCCN(CCC)C1CCc2cccc(O)c2C1 (stereo unspecified) [(?)-8-Hydroxy-DPAT hydrobromide] + C=CCn1c(=O)c2cnc(Nc3ccc(N4CCN(C)CC4)cc3)nc2n1-c1cccc(C(C)(C)O)n1 [MK1775] | inactive: 1.31
30 | CCCN1CCc2cccc3c2[C@H]1Cc1ccc(O)c(O)c1-3 [R(-)-Propylnorapomorphine hydrochloride] + C=CCn1c(=O)c2cnc(Nc3ccc(N4CCN(C)CC4)cc3)nc2n1-c1cccc(C(C)(C)O)n1 [MK1775] | inactive: -0.197
31 | c1ccc2c(c1)[I+]c1ccccc1-2 [Diphenyleneiodonium chloride] + C=CCn1c(=O)c2cnc(Nc3ccc(N4CCN(C)CC4)cc3)nc2n1-c1cccc(C(C)(C)O)n1 [MK1775] | inactive: -0.498
32 | CNc1ccc2oc(C[C@H]3O[C@@]4(CC[C@H]3C)O[C@H]([C@H](C)C(=O)c3ccc[nH]3)[C@H](C)C[C@H]4C)nc2c1C(=O)O [Calcimycin] + C=CCn1c(=O)c2cnc(Nc3ccc(N4CCN(C)CC4)cc3)nc2n1-c1cccc(C(C)(C)O)n1 [MK1775] | inactive: -1.05
33 | COc1ccc2c(c[n+](C)c3c4cc5c(cc4ccc23)OCO5)c1OC [Chelerythrine chloride] + C=CCn1c(=O)c2cnc(Nc3ccc(N4CCN(C)CC4)cc3)nc2n1-c1cccc(C(C)(C)O)n1 [MK1775] | inactive: 0.635
34 | C[C@H](Cc1ccc2c(c1)OC(C(=O)O)(C(=O)O)O2)NC[C@H](O)c1cccc(Cl)c1 + C=CCn1c(=O)c2cnc(Nc3ccc(N4CCN(C)CC4)cc3)nc2n1-c1cccc(C(C)(C)O)n1 [MK1775] | inactive: 0.892
35 | CCC1(c2ccc(N)cc2)CCC(=O)NC1=O (stereo unspecified) [(?)-p-Aminoglutethimide] + C=CCn1c(=O)c2cnc(Nc3ccc(N4CCN(C)CC4)cc3)nc2n1-c1cccc(C(C)(C)O)n1 [MK1775] | inactive: -0.254
36 | CCC1(c2ccc(N)cc2)CCC(=O)NC1=O (stereo unspecified) [Aminoglutethimide (Cytadren)] + C=CCn1c(=O)c2cnc(Nc3ccc(N4CCN(C)CC4)cc3)nc2n1-c1cccc(C(C)(C)O)n1 [MK1775] | inactive: 0.446
